Experimental findings from publication PMC11180011 are described below.

The subject of the data set is DasR (Streptomyces lincolnensis NBRC_13054). As to the kind of experiment: EMSA. The note with it: EMSA kit, 20 uL, 50 ng/uL Cy5 probe, 6% non-denaturing PAGE; fifth lane with 10 mg/mL salmon sperm DNA; salt and temperature not given; recombinant protein; protein details: 6xHis (pCold II); label: Cy5; probe letters rebuilt from the primers and the genome.

Construct, isoform or probe ends are uncertain for at least one entry. A negative result means that nothing was seen under these conditions.

For the sequence “AGCCAGTGGCGATAAGATCCCGAGGTCGACGCCCGAGCCGGTGAACAACGTCCGTTCCCCGTACCGGACATTGGCCTCATGGCACGTCAACACGGTGCGTCCGGCCGGGACCGAGGTCTGCGGAAGGGTGATCGCCAGGCGCGCTTCCTCACGCATCCCCTGACTGGCCTCGTCCAGCTTGGCCTTGGCCTGGGACACCCGGTCCTGGTGCACCGAGGCGGCGCGGCCCGCCGATTCCTGAGCCTGTCGCTGAAGGGCGCCCGCGTGGATACGGGGCACCCCCGACGAAGCCTTGTTCTTATCGCCACTGGCT (double strand) [lmbU promoter]”, the binding result is “no binding”.
The entry for “AGCCAGTGGCGATAAGATCGAGGACCTGACCGGCACGACCGGGGCGCGCGCCGCCTCCGGAGCCGCCGCGACCGGTGCCGTCGCCCGTCGCACCGTCCTCGTCACCGCCGCCCTGGGGGAGACCACCCGCACCCGCGCCACGGTCCTGCCGGACCTGTCCGCGCCGCCGCCCCTGCCCACGGACCTCGTCCCGCCCCTCGTCGAACTGCCGCGGTACACCGGGGCGTTGCCGCCGCACACGGTCCTGGAGCCGATGGCGTTCGCGGAACTGCTCGCGGAGTTCGCCGCGGTGGCCCTCGCCGTGCACGGCCCGGACGACGTCGAGCGCTTTCGGCGCCACTGGGACGGCACCCGGGTCGGCGTGCCCGCCCTCACCGTGACGGACAGTCCAGGGGCACTCGGCGGCTGGCCGGTGGACAGCGAGGGCACGACGGCCGCCCGACTGCCCCTGGTCGAGGCCGGAACCGTGGTCGGGTGCGCCCTGGACCGGGCCACCGCCGATGCCCTGGGACGCGCCCCCACCGGGCGCGCCTCGCGCGAGGTGTCCGGCCTCGCGGCCTACCCGGCCAACCTCGTGGTGGAGCTGCTTATCGCCACTGGCT (double strand) [lmbR promoter]” is “no binding”.
